Source: PubChem BioAssay AID1159506 (NCATS, 2015).

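Luminescence from an EWS-FLI1 target-promoter (NR0B1) reporter, set against a CMV-promoter reporter, two days after silencing single genes in TC32 Ewing sarcoma cells.
Each siRNA was applied at 20 nM.
A z-score of the log NR0B1-over-CMV signal, less the median of siRNAs with the same seed; more negative means a stronger specific loss of the NR0B1 reporter.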

The strongest results of the screen are mostly left out here.
Sequences are the guide (antisense) strand, without overhang.

strand,gene,seed-corrected z-score
UGCCGUAUGAGUGAAUGCC,ATIC,-1.234
UAGUGUAGCGAGCAAAUUC,GNAS,2.494
AACAAUGGAAUUUAGGCUC,TYW1,1.458
AGUUGUCCCAGUACGUUCC,TINAGL1,0.4544
UUGCUCAAGACGAUGUUCC,ECHDC3,0.2288
UAAGCUGCCUAGAAGAACC,CIAPIN1,-0.9509
UUAAUGUCCCGGGAUCCUC,KBTBD3,0.1857
UUGGUUGUACAAAUCCAUU,IL36A,0.4749
UAACGUAAUAGAACUGAGG,HPS4,-0.02762
AGAGUUGCAAGUGUGACAG,ISLR2,0.4164
UUAUUGUCCAGUUCACGAC,RASGRF1,1.03
UUCCUGAUCACCGUGAACU,ZBTB46,0.1675
UUCCGGAGGAGUUAGCUUG,CEP41,-0.2169
UUCUUGAGUAGUGCGUCAU,GH1,-0.4732
UUAAUUCCUAUUAGGAUAU,ATP5J2,-1.244
AUAAUAGUGUCUUUGAACC,DET1,-0.164
UCUCGAGCUGCGCUAAUGC,CACNB1,-0.157
UUAUCUUCAUCCUUAAGGC,FOXR2,1.239
AAUACAGACAAUACUAUCC,MRFAP1,0.09729
UUUUUGAACAGCGUCACCA,POMC,0.283
UUUCCUCACAGCCUAACCG,PDPK1,-0.2869
UUCUUCAUAAGCCCGAACU,NPRL2,0.2711
UUAUCAAAGCUCACGAAGC,CELF5,0.2661
ACUGCUAAGGGUGUCCUCG,ADRA1B,-0.7318
UUAGUGGUAACAUUAGCAG,KIAA2022,-0.3019
UAAACGUAAAUGUACUGUU,FAM91A3P,1.227
UGCACAGAGAUGACGAUGG,MAT1A,-0.05743
AAUGCUAAAAUGUGCAGGG,LINC01100,0.8608
UAUUGACUCUGUAUAGACC,MYL12A,-0.4862
AAUGGUACGUGGUUCAAUG,EHHADH,1.364
UUCGAUACUCCCUCAGAGC,TROVE2,-0.7867
UACCUAGAAACGUAAUGCC,AQP6,-0.1104
UUUUGGUAUAGAUAAGGAG,SLC10A2,-0.1158
UAGAAUAAAGGUGCAAGGC,NAA11,1.295
UUUAAUAUAGAUGCAGGAC,ZRANB2,0.2881
UGAGUGGUCAUCUUCUGGG,PDXDC1,-0.133
UAUAUGACUGAGGUCAAUC,PAN3,-0.1905
UGUUCGGUCACCUCCUUCC,CCDC154,0.7363
UCAUAUGUCAUUAUACUCC,DGKH,-0.427
UCAAUAUUCAGGUUGGUUC,PJA1,0.2415
UUGCCGUCGAUGUUGAGGC,DIRAS1,0.1174
AAAGUUGGUACCUCCAUGG,GLB1L,-0.01395
UAUGAUAACCCUUUCCUUG,C3orf30,-0.1155
UUUUGGUUGACAUCUGCAG,SYNPO,1.275
UCACCGCUUCUCAUUAUGC,UPRT,-0.172
UUUCAUACCCUGAAACUGC,LGMN,-1.329
AGAUAAGUAAGUAUGCUGG,ZNF420,-1.331
AAAGAUACGAAAGAGCUGG,CDK3,0.1885
UUUCCAUUCAAAGCAAAGC,MBNL1-AS1,0.1469
UUAGAGGCAGAAGUCUUCC,LDOC1L,0.2556
UCAUAGGUGACGUAGCUGC,SMAGP,-0.5379
AAAUUGUCAAGUGGUCUAC,CNN3P1,-1.111
UUCCUAUCAAACCCAUUGC,CLCA2,0.3862
UUUGUGGUAGUCAAUGGUG,NDST1,-1.065
UGCACUUUCAGCUUCCCUA,OXER1,-0.07738
UAUCUUAUCAUUUACUCCA,TRIM45,0.02823
UGAUGAACCUGUAGGACUG,PIP5K1C,1.064
UAAGGGAAUCUUGUUUAUC,SYT2,0.9004
UCUUAACUCAUUUCGGAGC,NAV2,0.7799

The last 3 entries again:

{"strand": "UGAUGAACCUGUAGGACUG", "gene": "PIP5K1C", "seed-corrected z-score": "1.064"}
{"strand": "UAAGGGAAUCUUGUUUAUC", "gene": "SYT2", "seed-corrected z-score": "0.9004"}
{"strand": "UCUUAACUCAUUUCGGAGC", "gene": "NAV2", "seed-corrected z-score": "0.7799"}